Test results from patent US10265321B2, “Uses of salt-inducible kinase (SIK) inhibitors” (Dana-Farber Cancer Institute, Inc., priority 2014, dated 2019).
At least one structure is not confirmed: it was looked up by name or label, or the drawing left a doubt.

Columns and labels:
[1] = tested on: phosphorylation of CRTC3 at S370; test: Immunoblotting of CRTC3 phosphorylation in BMDCs; type: cell-based, mouse; settings: BMDCs treated 24 hr
[2] = tested on: CREB-dependent luciferase reporter construct; test: CREB-dependent luciferase reporter gene assay in BMDCs; type: cell-based, mouse; settings: BMDCs pre-incubated 24 hr, zymosan 5 hr
[3] = following systemic LPS challenge (27); cited from earlier work

Compound | SIK-specific phosphorylation of CRTC3 at S370 [1] | induction of a CREB-dependent luciferase reporter construct following zymosan stimulation [2] | serum IL-10 levels [3] | serum TNF-α [3]
COc1cc(Nc2c(C#N)cnc3cc(OCCCN4CCN(C)CC4)c(OC)cc23)c(Cl)cc1Cl [bosutinib, reference compound] | decrease in SIK-specific phosphorylation of CRTC3 at S370 | four-fold | – | –
Cc1nc(Nc2ncc(C(=O)Nc3c(C)cccc3Cl)s2)cc(N2CCN(CCO)CC2)n1 [dasatinib] | – | four-fold | increased serum IL-10 levels | decreasing TNF-α
